From PMC9869976
These are yes or no findings as the source states them, for the method shown. In cells and extracts the contact can be indirect. Some binding calls cover weakened binding; strength is not graded here.

Chains of the proteins cited; added tags and fusions are not shown. Residues count along the entry.
UniProt P00751, residues 26-764: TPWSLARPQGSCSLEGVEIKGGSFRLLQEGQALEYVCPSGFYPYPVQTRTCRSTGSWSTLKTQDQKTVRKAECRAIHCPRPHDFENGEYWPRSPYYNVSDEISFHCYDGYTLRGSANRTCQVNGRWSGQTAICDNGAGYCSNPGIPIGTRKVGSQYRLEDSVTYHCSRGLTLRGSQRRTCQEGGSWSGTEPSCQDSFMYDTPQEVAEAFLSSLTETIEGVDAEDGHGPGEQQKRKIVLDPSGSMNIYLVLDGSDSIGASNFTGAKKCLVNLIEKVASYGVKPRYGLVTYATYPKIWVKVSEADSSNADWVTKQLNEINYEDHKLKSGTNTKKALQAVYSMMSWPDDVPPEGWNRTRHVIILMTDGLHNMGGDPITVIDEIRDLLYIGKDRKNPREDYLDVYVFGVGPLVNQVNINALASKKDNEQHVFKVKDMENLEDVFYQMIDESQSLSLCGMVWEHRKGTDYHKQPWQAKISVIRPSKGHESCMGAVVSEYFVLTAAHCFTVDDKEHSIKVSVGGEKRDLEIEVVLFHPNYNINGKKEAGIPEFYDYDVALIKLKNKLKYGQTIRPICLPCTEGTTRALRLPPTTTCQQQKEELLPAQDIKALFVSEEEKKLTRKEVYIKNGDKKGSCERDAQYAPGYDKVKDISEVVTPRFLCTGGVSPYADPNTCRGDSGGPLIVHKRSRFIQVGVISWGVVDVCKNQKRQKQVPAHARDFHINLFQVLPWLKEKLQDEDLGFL
UniProt P25963: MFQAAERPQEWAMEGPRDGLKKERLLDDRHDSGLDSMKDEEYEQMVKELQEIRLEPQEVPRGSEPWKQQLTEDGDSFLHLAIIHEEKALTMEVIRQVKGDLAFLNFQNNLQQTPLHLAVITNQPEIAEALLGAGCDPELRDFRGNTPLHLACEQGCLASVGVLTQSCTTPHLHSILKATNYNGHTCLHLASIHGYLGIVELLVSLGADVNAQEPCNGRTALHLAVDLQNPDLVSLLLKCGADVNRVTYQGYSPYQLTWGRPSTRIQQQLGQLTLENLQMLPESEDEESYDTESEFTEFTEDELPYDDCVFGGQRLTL
UniProt Q04206: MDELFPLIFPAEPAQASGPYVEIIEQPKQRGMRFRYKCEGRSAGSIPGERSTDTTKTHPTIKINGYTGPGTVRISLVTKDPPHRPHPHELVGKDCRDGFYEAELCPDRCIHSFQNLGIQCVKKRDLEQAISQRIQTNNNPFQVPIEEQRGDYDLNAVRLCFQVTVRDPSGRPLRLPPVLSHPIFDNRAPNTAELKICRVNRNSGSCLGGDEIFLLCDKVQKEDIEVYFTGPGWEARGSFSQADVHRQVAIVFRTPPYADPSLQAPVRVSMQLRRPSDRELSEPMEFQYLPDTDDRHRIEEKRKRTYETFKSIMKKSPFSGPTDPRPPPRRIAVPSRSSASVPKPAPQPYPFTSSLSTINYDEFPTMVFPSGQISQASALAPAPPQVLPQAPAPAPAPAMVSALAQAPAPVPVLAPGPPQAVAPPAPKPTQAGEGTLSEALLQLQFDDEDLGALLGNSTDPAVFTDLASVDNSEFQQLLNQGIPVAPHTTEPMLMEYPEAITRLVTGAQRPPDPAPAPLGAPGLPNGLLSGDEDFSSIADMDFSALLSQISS

B1: inhibitor of NF-κB kinase subunit B (protein, UniProt O14920 1-756)
chain: MSWSPSLTTQTCGAWEMKERLGTGGFGNVIRWHNQETGEQIAIKQCRQELSPRNRERWCLEIQIMRRLTHPNVVAARDVPEGMQNLAPNDLPLLAMEYCQGGDLRKYLNQFENCCGLREGAILTLLSDIASALRYLHENRIIHRDLKPENIVLQQGEQRLIHKIIDLGYAKELDQGSLCTSFVGTLQYLAPELLEQQKYTVTVDYWSFGTLAFECITGFRPFLPNWQPVQWHSKVRQKSEVDIVVSEDLNGTVKFSSSLPYPNNLNSVLAERLEKWLQLMLMWHPRQRGTDPTYGPNGCFKALDDILNLKLVHILNMVTGTIHTYPVTEDESLQSLKARIQQDTGIPEEDQELLQEAGLALIPDKPATQCISDGKLNEGHTLDMDLVFLFDNSKITYETQISPRPQPESVSCILQEPKRNLAFFQLRKVWGQVWHSIQTLKEDCNRLQQGQRAAMMNLLRNNSCLSKMKNSMASMSQQLKAKLDFFKTSIQIDLEKYSEQTEFGITSDKLLLAWREMEQAVELCGRENEVKLLVERMMALQTDIVDLQRSPMGRKQGGTLDDLEEQARELYRRLREKPRDQRTEGDSQEMVRLLLQAIQSFEKKVRVIYTQLSKTVVCKQKALELLPKVEEVVSLMNEDEKTVVRLQEKRQKELWNLLKIACSKVRGPVSGSPDSMNASRLSQPGQLMSQPSTASNSLPEPAKKSEELVAEAHNLCTLLENAIQDTVREQDQSFTALDWSWLQTEEEEHSCLEQAS

Biological target: complement factor B (human (endogenous in HK-2)) (UniProt P00751)
Assay: co-IP; HK-2 total protein lysate (500 μg protein in 500 μL) incubated with 5 μg anti-CFB (Quidel) or anti-IgG antibody on beads (Pierce Crosslink Magnetic Co-IP kit), overnight at 4°C; low-pH elution; immunoblot for NF-κB p65, IκBα and IKBKB

Molecule	binding
IκBα (from UniProt P25963 1-317)	no binding
NF-κB p65 (from UniProt Q04206 1-551)	no binding
B1	binds
